About 9,100 (2.5%) of roughly 360,000 compounds were called active. Inconclusive results, whose numbers are uncertain, are shown with a selection of clear calls. Rule as the data show it: active = max response below about -50%; inconclusive = no clear call, values can overlap the other calls; inactive = above that.
molecular target: D(3) dopamine receptor (Homo sapiens) (UniProt P35462); test: qHTS of D3 Dopamine Receptor Antagonist: qHTS; conditions: D3R cells, DiscoveRx beta-arrestin luminescence, antagonist mode; stronger effect = lower value
Method in brief: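 Cells expressing the human receptor were seeded at 1500 cells/well, incubated overnight at 37 degrees C in 5% CO2, then exposed to library compounds with dopamine controls for 90 minutes at 37 degrees C before luminescent detection.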
% is scaled to controls: 0 for no effect and ±100 for the full control effect.

By UniProt entry, the sequences of proteins in these tests, tags left out.
UniProt P35462, whole entry, looked up: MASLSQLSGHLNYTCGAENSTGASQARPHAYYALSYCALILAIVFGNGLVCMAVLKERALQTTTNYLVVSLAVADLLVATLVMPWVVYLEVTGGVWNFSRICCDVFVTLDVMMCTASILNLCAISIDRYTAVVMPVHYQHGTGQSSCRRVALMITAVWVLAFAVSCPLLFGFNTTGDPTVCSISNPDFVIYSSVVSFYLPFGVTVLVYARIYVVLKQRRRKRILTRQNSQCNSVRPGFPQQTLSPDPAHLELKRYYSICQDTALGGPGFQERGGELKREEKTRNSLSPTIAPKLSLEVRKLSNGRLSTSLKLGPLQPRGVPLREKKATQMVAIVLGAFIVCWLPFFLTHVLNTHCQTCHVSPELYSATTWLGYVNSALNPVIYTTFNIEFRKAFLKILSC

Max response, negative = inhibition, active:
CC(=O)Nc1ccc(Sc2ncccc2C(=O)Nc2cc(Cl)cc(Cl)c2)cn1 -52%
CC(=O)Nc1nnc(CSCc2ccc(F)cc2)s1 -51%
O=C(NCCN1CCCCC1)Nc1cccc(C(F)(F)F)c1 -57.6%
Brc1cccc(OCCN2CCCCC2)c1 -92.4%
O=C(NCC1COc2ccccc2O1)c1cccc(S(=O)(=O)N2CCOCC2)c1 (centres undefined) -61.4%

Max response, negative = inhibition, inconclusive:
CN(C)CCO/N=C(\c1ccc(Br)cc1)c1cccnc1 -47.2%
C[C@]12c3[nH]c4ccccc4c3CCN1C(=O)C(CC(=O)NCc1ccco1)C[C@@H]2C(=O)N1CCCCC1 (some centres undefined) -41.9%
Cc1cc(C(C)(C)C)cc(C)c1N -30.9%
N#CC1=C(N)OC2=C(C(=O)CCC2)C1c1ccccc1 (centres undefined) -43.3%
Cc1ccc2nc(N3CCN(C)CC3)c(C#N)cc2c1 -37.2%
Cc1nnc(N/N=C/c2cc([N+](=O)[O-])c(N3CCC(C)CC3)cc2N2CCC(C)CC2)n1N -33.4%
O=C1CC(=Nc2ccc([N+](=O)[O-])cc2)NN1c1c(Cl)cc(Cl)cc1Cl -34.9%
CC[C@]12c3[nH]c4cc(-c5ccco5)ccc4c3CCN1C(=O)[C@@H](CC(=O)NC/C=C(\C)CCC=C(C)C)C[C@@H]2C(=O)N1CCN(C(=O)C2CC2)CC1 -35.6%
O=C(O)c1ccccc1-c1ccc(/C=c2\sc3nc4cc(Br)cnc4n3c2=O)o1 -46%
Cc1ccc(-n2nnnc2SCc2nc3sc(C)c(C)c3c(=O)[nH]2)cc1 -31.2%
O=C(NCc1ccccc1)C1=C[C@H](C2CC2)C[C@H](OCc2ccc(CO)cc2)O1 -46.7%
Cc1ccc(S(=O)(=O)NCc2ccc(C(=O)N3CCc4ccccc4C3)cc2)cc1 -34%
CCOC(=O)C1=NNC2(c3ccc(C)cc3)C(=O)N(c3ccccc3)C(=O)C12 (centres undefined) -38.1%
CCN1CCN(c2cc(C)c3cc(NC(=O)c4cccs4)ccc3n2)CC1 -35.1%
O=S(=O)(NCC(c1ccco1)N1CCc2ccccc2C1)c1ccc(F)cc1 (centres undefined) -43.1%
CN1CCN(NC(=O)c2cc(-c3ccc(Cl)s3)nc3ccccc23)CC1 -36.9%
CCCN1CCN(C(=O)c2ccc(S(=O)(=O)N(C)c3ccccc3OC)cc2)CC1 -32.1%
O=C(Nc1ccc2c(c1)OCO2)N1CCN(c2ccccc2Cl)CC1 -30.9%
COc1ccccc1-n1nnnc1S(=O)(=O)Cc1ccc(Cl)cc1 -36.8%
O=C(CN1C(=O)COc2ccccc21)c1cccc(Cl)c1 -42.8%
CN(C)S(=O)(=O)c1ccc(NCC2COc3ccccc3O2)c([N+](=O)[O-])c1 (centres undefined) -40.5%
c1ccc2c3c(c(CN4CCCC4)cc2c1)COC3 -30.4%
CCOc1ccccc1/C=N/Nc1nc2ccccc2o1 -33.5%
OCCNCCCCCOc1ccc(F)cc1 -32.3%
Cc1csc(SCc2c(C(=O)O)oc3ccccc23)n1 -40.5%
O=C(NCCCn1ccnc1)c1ccc(N2CCCCC2)c([N+](=O)[O-])c1 -30.5%
COC(=O)c1ccc(NC(=O)CCN2CCN(Cc3ccccc3)CC2)cc1 -38.5%
COc1cc(C(=O)NC(C)c2ccc(-n3ccnc3)cc2)cc(OC)c1C (centres undefined) -35%
C[C@H](N)c1nnc(SCc2c(Cl)cccc2Cl)o1 -43.2%
Cc1ccc(C(=O)c2c(NC(=O)c3ccccc3C)sc(C)c2C)cc1 -30.8%
C=CCNC(=S)NNC(=O)c1cccn(Cc2ccc(Cl)c(Cl)c2)c1=O -44%

Part of the list above in order of number of heavy atoms, rising:
Max response, negative = inhibition, inconclusive:
CN(C)CCO/N=C(\c1ccc(Br)cc1)c1cccnc1 -47.2%
O=S(=O)(NCC(c1ccco1)N1CCc2ccccc2C1)c1ccc(F)cc1 (centres undefined) -43.1%
O=C(O)c1ccccc1-c1ccc(/C=c2\sc3nc4cc(Br)cnc4n3c2=O)o1 -46%

Following part:

Max response, negative = inhibition, inactive:
COc1cccc(-c2noc(Cn3nc(C(=O)O)c4ccccc4c3=O)n2)c1 3.02%
O=C(NN=Cc1c(O)ccc2ccccc12)c1ccncc1 38.7%
CCCN=C(N)/C(C(=O)OCC)=C(\O)c1ccc(OC)cc1 12.3%
COc1ccccc1-n1cc2c([N+](=O)[O-])cc([N+](=O)[O-])cc2n1 -0.956%
CC(=O)N1CCN(c2cc(-c3ccccc3)nc3cc(-c4cccc(Cl)c4)nn23)CC1 23%
COc1ccccc1N(C(=O)c1ccco1)C(C(=O)NC1CCCCC1)c1cc(OC)c(OC)c(OC)c1 (centres undefined) -9.17%
Cc1ccccc1OCc1ccc(C(=O)N2CCOCC2)o1 -4.2%
Cc1onc(-c2ccccc2)c1C(=O)OCC(=O)NC(C)c1ccc(Cl)cc1 (centres undefined) -26.5%
COc1ccc(OCC(O)Cn2c(N3CCCCC3)nc3c2c(=O)n(C)c(=O)n3C)cc1 (centres undefined) 57%
C#CCOCCOCCOCCNc1nc(N2CCN(C(=O)CCCCCCCCCCNC(=O)Cn3cc(CCCCCN)nn3)CC2)nc(N2CCN(C(=O)CCCCCCCCCCNC(=O)[C@H]([C@@H](C)CC)n3cc(CCCCCN)nn3)CC2)n1 -12.6%
CCC(C(=O)OCC(=O)Nc1cc(C)ccc1OC)c1ccccc1 (centres undefined) 0%
Cc1cccc(NC(=S)NCC(C)CSc2ccc(Cl)cc2)c1 (centres undefined) 6.35%
N#C/C(=C(/O)CCl)c1nc(-c2ccccc2)cs1 -6.3%
Cc1ccc(S(=O)(=O)Nc2ccccc2C(=O)Nc2nc(-c3ccc(F)cc3)cs2)cc1 32.2%
Cc1ccc(NC(=O)C(C)N2C(=O)c3ccccc3C2=O)c(C)c1 (centres undefined) 3.53%
CCOc1cc(/C=C2\CCC/C(=C\c3cc(Cl)c(O)c(OCC)c3)C2=O)cc(Cl)c1O -15.6%
CC1(C)CC1C(=O)Nc1ccc([N+](=O)[O-])cc1Br (centres undefined) 71.9%
CCOC(=O)c1ccc(NCCOC)c([N+](=O)[O-])c1 4.2%

— PubChem BioAssay AID652054 (National Center for Advancing Translational Sciences (NCATS), 2013)
